Measured values reported in the supplement of paper PMC12819154, “High-throughput peptide-centric local stability assay extends protein–ligand identification to membrane proteins, tissues and bacteria” (Nature Structural & Molecular Biology, 2025).
Some of the results follow. Most values lie at the level of the controls, where differences are scatter.

Protein sequences, listed by entry. Tags and fused reporters are not part of them. Lines headed by an entry give the natural chain unless they say otherwise; changes in a name come on top.
UniProt Q7Z3J3, whole entry: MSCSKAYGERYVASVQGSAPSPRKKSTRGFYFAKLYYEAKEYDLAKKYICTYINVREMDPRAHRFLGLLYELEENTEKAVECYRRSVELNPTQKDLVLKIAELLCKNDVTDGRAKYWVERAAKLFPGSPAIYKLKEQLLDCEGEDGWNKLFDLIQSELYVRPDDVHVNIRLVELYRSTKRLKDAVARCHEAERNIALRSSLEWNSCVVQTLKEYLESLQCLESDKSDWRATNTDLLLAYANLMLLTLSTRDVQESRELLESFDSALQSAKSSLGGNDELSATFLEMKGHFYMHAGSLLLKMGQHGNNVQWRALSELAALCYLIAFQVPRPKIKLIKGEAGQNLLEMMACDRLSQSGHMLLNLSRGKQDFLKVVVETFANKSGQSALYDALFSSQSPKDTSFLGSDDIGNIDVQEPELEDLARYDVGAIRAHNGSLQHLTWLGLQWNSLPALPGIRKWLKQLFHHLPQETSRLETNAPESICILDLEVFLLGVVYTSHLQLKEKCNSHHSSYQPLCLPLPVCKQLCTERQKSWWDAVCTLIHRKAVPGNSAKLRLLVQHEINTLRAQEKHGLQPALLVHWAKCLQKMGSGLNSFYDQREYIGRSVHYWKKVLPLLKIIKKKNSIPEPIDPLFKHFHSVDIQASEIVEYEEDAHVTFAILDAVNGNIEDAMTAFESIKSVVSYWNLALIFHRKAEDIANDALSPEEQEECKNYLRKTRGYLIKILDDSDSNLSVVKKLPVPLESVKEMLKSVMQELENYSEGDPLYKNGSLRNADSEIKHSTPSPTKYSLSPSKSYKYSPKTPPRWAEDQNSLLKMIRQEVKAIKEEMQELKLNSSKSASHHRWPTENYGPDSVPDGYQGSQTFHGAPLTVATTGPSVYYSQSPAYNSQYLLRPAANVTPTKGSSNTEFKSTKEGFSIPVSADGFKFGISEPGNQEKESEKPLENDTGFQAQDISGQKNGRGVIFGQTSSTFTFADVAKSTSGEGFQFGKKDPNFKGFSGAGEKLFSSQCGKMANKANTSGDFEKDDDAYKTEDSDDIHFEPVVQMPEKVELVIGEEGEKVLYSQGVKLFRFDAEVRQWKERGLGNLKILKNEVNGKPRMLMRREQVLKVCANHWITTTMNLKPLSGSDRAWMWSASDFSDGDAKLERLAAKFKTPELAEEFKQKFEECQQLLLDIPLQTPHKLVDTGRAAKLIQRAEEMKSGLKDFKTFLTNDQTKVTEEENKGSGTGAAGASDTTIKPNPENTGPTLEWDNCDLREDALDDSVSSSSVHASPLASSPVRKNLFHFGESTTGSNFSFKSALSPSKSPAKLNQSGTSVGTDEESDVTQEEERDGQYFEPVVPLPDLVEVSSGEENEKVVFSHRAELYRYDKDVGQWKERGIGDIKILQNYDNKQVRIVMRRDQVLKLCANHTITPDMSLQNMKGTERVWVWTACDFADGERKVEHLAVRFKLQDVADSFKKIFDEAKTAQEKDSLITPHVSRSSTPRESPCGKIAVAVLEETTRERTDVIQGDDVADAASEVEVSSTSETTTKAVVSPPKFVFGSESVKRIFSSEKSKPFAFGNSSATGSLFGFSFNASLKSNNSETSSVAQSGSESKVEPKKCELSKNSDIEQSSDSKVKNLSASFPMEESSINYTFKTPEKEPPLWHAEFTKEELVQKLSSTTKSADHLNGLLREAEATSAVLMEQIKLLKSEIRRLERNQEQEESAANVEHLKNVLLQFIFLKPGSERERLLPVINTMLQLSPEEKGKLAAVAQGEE
UniProt Q6ZNE5, whole entry: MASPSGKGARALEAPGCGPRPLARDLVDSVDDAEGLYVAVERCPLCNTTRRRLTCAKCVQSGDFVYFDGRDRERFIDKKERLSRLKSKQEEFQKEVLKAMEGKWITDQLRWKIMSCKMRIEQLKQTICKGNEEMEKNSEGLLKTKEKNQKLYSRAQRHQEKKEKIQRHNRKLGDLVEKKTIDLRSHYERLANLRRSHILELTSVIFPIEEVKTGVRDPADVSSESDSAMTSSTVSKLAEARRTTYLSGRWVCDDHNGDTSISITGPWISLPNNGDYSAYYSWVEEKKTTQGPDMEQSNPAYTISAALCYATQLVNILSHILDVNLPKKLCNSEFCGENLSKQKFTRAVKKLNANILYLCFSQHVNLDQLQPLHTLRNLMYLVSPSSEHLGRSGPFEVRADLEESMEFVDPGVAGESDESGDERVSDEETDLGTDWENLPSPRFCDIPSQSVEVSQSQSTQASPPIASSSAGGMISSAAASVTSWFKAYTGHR
UniProt Q70SY1: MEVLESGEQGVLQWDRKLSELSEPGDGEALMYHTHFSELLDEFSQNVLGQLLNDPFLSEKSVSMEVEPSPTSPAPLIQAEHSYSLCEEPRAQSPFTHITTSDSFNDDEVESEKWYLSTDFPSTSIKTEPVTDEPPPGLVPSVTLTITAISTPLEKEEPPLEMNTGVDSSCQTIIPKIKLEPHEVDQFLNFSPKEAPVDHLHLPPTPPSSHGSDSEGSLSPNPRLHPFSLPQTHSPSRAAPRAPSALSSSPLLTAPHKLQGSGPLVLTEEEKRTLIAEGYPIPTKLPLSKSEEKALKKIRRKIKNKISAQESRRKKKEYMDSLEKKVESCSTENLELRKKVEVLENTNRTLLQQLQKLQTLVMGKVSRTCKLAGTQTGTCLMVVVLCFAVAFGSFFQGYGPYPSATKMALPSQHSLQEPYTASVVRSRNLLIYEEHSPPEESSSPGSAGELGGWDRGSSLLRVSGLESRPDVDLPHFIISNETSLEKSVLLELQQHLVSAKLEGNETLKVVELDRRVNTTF
UniProt Q7Z739: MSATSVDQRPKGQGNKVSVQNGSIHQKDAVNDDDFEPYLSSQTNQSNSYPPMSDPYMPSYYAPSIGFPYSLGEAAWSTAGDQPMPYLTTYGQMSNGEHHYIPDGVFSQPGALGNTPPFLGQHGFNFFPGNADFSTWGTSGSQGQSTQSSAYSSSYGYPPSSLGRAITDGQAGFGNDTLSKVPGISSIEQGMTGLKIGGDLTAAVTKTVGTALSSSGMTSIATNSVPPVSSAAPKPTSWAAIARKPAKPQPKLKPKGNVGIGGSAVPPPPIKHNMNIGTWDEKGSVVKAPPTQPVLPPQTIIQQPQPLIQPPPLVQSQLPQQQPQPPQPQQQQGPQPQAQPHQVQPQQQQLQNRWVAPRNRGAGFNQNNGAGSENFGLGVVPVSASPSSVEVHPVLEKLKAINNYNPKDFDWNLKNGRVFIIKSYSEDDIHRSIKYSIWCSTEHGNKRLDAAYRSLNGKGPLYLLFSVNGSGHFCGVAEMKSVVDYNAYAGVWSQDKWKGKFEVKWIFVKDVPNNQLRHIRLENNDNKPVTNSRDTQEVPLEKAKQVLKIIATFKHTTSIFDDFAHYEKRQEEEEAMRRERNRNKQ
UniProt Q6ZNB6: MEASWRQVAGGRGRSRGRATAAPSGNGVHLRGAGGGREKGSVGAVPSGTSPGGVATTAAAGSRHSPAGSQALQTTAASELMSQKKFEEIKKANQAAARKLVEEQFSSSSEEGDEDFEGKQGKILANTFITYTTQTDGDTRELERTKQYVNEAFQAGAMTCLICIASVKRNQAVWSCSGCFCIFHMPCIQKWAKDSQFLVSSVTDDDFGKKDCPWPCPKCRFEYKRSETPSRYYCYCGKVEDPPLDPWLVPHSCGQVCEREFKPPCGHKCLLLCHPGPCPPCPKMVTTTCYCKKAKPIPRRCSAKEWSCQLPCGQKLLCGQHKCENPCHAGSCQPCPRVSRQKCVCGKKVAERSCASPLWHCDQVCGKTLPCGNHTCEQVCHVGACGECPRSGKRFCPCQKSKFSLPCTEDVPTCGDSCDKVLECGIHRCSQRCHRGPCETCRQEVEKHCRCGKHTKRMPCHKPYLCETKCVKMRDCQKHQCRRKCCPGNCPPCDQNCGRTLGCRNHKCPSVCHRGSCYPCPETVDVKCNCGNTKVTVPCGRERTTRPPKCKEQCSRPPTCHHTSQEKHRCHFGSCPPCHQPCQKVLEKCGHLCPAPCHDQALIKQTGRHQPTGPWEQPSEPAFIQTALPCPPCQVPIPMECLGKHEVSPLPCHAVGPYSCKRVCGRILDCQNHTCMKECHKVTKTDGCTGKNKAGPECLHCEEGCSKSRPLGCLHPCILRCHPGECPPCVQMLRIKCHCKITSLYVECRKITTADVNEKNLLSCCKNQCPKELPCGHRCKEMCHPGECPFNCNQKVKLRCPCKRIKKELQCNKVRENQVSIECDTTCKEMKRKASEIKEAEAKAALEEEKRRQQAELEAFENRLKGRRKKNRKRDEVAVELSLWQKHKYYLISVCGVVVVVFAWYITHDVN
UniProt Q7L945: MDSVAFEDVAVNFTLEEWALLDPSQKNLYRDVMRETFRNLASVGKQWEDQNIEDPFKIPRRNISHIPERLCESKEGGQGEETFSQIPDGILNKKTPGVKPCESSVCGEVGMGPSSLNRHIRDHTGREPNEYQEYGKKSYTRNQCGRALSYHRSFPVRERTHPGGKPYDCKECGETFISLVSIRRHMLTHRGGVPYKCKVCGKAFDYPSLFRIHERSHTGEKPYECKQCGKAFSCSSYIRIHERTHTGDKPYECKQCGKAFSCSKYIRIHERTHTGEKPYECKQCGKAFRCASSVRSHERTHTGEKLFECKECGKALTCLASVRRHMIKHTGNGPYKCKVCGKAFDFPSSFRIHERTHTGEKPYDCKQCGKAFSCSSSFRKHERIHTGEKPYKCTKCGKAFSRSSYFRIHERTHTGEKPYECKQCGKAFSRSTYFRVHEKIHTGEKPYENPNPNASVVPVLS
UniProt Q7L5N1: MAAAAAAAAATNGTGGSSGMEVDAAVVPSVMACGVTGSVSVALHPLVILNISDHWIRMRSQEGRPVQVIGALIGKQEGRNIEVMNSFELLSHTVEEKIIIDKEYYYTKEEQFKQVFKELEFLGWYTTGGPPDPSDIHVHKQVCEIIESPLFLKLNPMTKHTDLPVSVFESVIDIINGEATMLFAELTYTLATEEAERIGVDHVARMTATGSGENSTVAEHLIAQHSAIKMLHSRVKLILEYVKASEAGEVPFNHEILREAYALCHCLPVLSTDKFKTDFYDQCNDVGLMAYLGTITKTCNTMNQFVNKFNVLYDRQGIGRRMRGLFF
UniProt Q7L1Q6: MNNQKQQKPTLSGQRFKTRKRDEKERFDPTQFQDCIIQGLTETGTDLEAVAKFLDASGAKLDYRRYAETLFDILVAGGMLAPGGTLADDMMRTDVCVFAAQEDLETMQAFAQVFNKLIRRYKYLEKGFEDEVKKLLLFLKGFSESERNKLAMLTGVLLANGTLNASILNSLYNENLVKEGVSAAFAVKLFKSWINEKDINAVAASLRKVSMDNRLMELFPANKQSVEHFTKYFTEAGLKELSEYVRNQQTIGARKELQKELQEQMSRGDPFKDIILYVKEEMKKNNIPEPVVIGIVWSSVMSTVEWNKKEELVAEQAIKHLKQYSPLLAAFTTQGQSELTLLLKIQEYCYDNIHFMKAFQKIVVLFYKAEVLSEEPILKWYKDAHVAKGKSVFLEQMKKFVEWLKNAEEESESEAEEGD
UniProt Q86UT8: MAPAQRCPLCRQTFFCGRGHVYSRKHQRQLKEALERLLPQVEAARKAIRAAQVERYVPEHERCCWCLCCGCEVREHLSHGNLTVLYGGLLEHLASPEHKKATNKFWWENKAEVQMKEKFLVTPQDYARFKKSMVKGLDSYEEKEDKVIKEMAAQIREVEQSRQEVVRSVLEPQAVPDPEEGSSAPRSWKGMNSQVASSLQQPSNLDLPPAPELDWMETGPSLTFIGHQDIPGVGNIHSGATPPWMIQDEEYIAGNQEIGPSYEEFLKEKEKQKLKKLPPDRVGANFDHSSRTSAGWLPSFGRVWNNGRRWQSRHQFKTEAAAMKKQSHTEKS

Each target was assayed with CN[C@@H]1C[C@H]2O[C@@](C)([C@@H]1OC)n1c3ccccc3c3c4c(c5c6ccccc6n2c5c31)C(=O)NC4 [staurosporine] (assay: log2 fold change of tryptic peptide abundance, ligand vs vehicle (limited proteolysis) (log2 ratio); higher = more trypsin-susceptible (destabilized)). Settings: ligand concentration: 20 uM; sample: K562 cleared lysate; digestion: 4 min, 22 C (HT-PELSA RT4min, Orbitrap Astral).
Target “FGD6 (peptide sequence: SPSSALSSVLHSIPSGR, peptide start residue: 1299) (UniProt Q6ZV73)” has a log2 fold change of 0.541.
“UniProt Q7Z3J3 (peptide sequence: SALSPSKSPAK, peptide start residue: 2273)” gave a log2 fold change of 0.161.
Target “UniProt Q71UM5 (peptide sequence: DLLHPSLEEEK, peptide start residue: 6)” has a log2 fold change of 0.201.
“ATG14 (peptide sequence: SHILELTSVIFPIEEVK, peptide start residue: 196) (UniProt Q6ZNE5)” gave a log2 fold change of -0.258.
Target “CREB3L2 (peptide sequence: APSALSSSPLLTAPHK, peptide start residue: 242) (UniProt Q70SY1)” has a log2 fold change of 0.375.
“YTHDF3 (peptide sequence: IGGDLTAAVTK, peptide start residue: 196) (UniProt Q7Z739)” showed a log2 fold change of -0.239.
Work on “NFXL1 (peptide sequence: ATAAPSGNGVHLR, peptide start residue: 19) (UniProt Q6ZNB6)” yielded a log2 fold change of 0.249.
“ZNF627 (peptide sequence: NISHIPERLCESK, peptide start residue: 62) (UniProt Q7L945)” gave a log2 fold change of 0.124.
Target “COPS6 (peptide sequence: SQEGRPVQVIGALIGK, peptide start residue: 60) (UniProt Q7L5N1)” has a log2 fold change of -0.347.
“UniProt Q7L1Q6 (peptide sequence: GFEDEVKK, peptide start residue: 127)” was tested, and the log2 fold change was 0.344.
“UniProt Q86UT8 (peptide sequence: TSAGWLPSFGR, peptide start residue: 292)” gave a log2 fold change of -0.263.
